Binding data for 1 molecule are collected here from paper PMC13321232.

For test [1], the target named is T1, ERL2-HA (Arabidopsis thaliana) (UniProt Q6XAT2).
T1 sequence: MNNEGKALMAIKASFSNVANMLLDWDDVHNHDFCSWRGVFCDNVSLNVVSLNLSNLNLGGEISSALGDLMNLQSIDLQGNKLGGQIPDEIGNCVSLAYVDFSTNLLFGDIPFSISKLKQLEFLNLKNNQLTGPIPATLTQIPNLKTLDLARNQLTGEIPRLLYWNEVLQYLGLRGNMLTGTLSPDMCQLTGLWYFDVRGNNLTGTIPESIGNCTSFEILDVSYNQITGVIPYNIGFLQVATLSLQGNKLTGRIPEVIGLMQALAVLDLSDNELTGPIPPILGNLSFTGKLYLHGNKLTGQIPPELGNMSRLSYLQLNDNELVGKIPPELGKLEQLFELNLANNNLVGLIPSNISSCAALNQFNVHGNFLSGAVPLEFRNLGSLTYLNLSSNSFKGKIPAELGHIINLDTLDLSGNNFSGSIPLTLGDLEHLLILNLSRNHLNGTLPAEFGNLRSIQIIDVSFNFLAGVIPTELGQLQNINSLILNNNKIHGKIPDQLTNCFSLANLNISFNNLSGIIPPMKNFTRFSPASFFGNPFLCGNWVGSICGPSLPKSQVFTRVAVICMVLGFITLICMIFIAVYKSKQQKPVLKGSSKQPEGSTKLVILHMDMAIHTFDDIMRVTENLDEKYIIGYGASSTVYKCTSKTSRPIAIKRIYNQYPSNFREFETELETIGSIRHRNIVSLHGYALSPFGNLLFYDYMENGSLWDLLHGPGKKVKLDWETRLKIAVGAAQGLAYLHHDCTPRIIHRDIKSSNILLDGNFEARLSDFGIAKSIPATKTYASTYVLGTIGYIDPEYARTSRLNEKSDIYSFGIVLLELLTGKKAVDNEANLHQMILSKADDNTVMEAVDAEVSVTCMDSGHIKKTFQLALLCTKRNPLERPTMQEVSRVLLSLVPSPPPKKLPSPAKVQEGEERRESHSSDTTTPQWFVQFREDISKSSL
The test is described as follows: co-IP; FLAG- and HA-tagged proteins cotransfected into Arabidopsis protoplasts from root cell suspension cultures; 10 µM MG132 for 6 h; lysis in 50 mM Tris-HCl pH 7.6, 150 mM NaCl, 1% NP-40, 0.1% SDS; anti-FLAG (anti-DYKDDDDK) or anti-HA magnetic beads, 4 °C; western blot.

Test [2] has as its target T2, ER-HA (Arabidopsis thaliana) (UniProt Q42371).
T2 sequence: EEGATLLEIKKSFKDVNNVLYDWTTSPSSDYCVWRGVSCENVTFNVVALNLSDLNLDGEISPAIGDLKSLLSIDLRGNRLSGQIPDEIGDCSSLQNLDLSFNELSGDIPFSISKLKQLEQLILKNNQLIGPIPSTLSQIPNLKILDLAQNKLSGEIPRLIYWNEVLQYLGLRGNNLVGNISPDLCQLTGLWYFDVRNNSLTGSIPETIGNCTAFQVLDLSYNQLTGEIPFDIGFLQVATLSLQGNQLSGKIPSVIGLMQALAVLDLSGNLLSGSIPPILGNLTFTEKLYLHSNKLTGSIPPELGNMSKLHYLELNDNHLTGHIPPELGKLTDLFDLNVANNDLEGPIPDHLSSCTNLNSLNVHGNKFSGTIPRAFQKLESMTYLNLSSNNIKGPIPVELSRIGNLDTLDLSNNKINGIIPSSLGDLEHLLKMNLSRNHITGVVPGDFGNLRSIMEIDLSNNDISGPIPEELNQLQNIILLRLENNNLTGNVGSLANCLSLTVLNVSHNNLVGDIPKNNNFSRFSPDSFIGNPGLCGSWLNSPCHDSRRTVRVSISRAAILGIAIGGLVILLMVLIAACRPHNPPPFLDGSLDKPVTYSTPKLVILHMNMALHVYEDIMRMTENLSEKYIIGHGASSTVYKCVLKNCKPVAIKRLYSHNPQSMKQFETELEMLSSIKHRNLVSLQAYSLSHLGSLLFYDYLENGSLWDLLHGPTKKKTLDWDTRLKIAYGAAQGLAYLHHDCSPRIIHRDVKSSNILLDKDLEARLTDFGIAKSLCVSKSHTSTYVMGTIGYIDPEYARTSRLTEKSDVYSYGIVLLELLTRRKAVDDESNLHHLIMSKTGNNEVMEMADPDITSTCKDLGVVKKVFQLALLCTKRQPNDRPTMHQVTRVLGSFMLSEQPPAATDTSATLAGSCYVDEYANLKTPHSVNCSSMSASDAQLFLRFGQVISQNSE
Described as above.

In test [3] the target is T3, ERL1-HA (Arabidopsis thaliana) (UniProt C0LGW6).
T3 sequence: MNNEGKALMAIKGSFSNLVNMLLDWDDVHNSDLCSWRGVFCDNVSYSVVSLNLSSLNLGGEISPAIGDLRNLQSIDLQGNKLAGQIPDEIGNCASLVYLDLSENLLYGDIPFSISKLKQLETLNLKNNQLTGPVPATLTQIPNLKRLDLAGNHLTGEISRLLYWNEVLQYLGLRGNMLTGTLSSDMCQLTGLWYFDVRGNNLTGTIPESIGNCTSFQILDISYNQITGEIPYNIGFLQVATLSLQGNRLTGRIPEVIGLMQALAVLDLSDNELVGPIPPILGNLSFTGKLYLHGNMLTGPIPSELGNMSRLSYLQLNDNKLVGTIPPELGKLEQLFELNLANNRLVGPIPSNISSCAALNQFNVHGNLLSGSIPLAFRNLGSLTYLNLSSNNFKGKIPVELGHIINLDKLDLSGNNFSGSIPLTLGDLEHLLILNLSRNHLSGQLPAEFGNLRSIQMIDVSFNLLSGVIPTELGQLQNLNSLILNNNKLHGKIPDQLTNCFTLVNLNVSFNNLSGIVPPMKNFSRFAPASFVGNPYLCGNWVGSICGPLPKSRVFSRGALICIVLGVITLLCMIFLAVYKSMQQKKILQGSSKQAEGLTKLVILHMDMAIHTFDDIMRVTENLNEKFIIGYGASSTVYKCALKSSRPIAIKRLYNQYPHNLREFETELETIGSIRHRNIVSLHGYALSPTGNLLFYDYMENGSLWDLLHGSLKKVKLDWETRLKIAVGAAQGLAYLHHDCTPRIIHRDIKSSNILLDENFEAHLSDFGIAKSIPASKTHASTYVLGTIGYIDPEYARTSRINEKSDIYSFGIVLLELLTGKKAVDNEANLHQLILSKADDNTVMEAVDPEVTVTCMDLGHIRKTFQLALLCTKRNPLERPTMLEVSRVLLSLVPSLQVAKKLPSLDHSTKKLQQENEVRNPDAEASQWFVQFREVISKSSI
Described as above.

Test [4] has as its target T1, ERL2-HA (Arabidopsis thaliana). Description: co-IP; FLAG- and HA-tagged proteins coinfiltrated into Nicotiana leaves; 10 µM MG132 for 6 h; lysis in 50 mM Tris-HCl pH 7.6, 150 mM NaCl, 1% NP-40, 0.1% SDS; anti-HA or anti-FLAG (anti-DYKDDDDK) magnetic beads, 4 °C; western blot. (In general: In western blotting, separated proteins are transferred to a membrane and probed.)

In test [5] the target is T2, ER-HA (Arabidopsis thaliana). The description is as above.

These are yes or no findings as the source states them, for the method shown. In cells and extracts the contact can be indirect. Some binding calls cover weakened binding; strength is not graded here. Sequences can lack the tags named with a protein.

B1: PXY-FLAG (plant construct) (receptor, UniProt Q9FII5 30-1041)
chain: LKFSPQLLSLLSLKTSLSGPPSAFQDWKVPVNGQNDAVWCSWSGVVCDNVTAQVISLDLSHRNLSGRIPIQIRYLSSLLYLNLSGNSLEGSFPTSIFDLTKLTTLDISRNSFDSSFPPGISKLKFLKVFNAFSNNFEGLLPSDVSRLRFLEELNFGGSYFEGEIPAAYGGLQRLKFIHLAGNVLGGKLPPRLGLLTELQHMEIGYNHFNGNIPSEFALLSNLKYFDVSNCSLSGSLPQELGNLSNLETLFLFQNGFTGEIPESYSNLKSLKLLDFSSNQLSGSIPSGFSTLKNLTWLSLISNNLSGEVPEGIGELPELTTLFLWNNNFTGVLPHKLGSNGKLETMDVSNNSFTGTIPSSLCHGNKLYKLILFSNMFEGELPKSLTRCESLWRFRSQNNRLNGTIPIGFGSLRNLTFVDLSNNRFTDQIPADFATAPVLQYLNLSTNFFHRKLPENIWKAPNLQIFSASFSNLIGEIPNYVGCKSFYRIELQGNSLNGTIPWDIGHCEKLLCLNLSQNHLNGIIPWEISTLPSIADVDLSHNLLTGTIPSDFGSSKTITTFNVSYNQLIGPIPSGSFAHLNPSFFSSNEGLCGDLVGKPCNSDRFNAGNADIDGHHKEERPKKTAGAIVWILAAAIGVGFFVLVAATRCFQKSYGNRVDGGGRNGGDIGPWKLTAFQRLNFTADDVVECLSKTDNILGMGSTGTVYKAEMPNGEIIAVKKLWGKNKENGKIRRRKSGVLAEVDVLGNVRHRNIVRLLGCCTNRDCTMLLYEYMPNGSLDDLLHGGDKTMTAAAEWTALYQIAIGVAQGICYLHHDCDPVIVHRDLKPSNILLDADFEARVADFGVAKLIQTDESMSVVAGSYGYIAPEYAYTLQVDKKSDIYSYGVILLEIITGKRSVEPEFGEGNSIVDWVRSKLKTKEDVEEVLDKSMGRSCSLIREEMKQMLRIALLCTSRSPTDRPPMRDVLLILQEAKPKRKTVGDNVIVVGDVNDVNFEDVCSVDVGHDVKCQRIGV
In the case of B1, the binding result in test [1] is on record as “binds”; in test [2] it was “binds”; in test [3], “no binding”; in test [4], “binds”; in test [5], “binds”.
